PMC11898743
These are yes or no findings as the source states them, for the method shown. Some results given as binding are weak or reduced against the parent protein; the word gives no strength.

Protein sequences, listed by entry. Tags and fused reporters are not part of them.
UniProt Q93034: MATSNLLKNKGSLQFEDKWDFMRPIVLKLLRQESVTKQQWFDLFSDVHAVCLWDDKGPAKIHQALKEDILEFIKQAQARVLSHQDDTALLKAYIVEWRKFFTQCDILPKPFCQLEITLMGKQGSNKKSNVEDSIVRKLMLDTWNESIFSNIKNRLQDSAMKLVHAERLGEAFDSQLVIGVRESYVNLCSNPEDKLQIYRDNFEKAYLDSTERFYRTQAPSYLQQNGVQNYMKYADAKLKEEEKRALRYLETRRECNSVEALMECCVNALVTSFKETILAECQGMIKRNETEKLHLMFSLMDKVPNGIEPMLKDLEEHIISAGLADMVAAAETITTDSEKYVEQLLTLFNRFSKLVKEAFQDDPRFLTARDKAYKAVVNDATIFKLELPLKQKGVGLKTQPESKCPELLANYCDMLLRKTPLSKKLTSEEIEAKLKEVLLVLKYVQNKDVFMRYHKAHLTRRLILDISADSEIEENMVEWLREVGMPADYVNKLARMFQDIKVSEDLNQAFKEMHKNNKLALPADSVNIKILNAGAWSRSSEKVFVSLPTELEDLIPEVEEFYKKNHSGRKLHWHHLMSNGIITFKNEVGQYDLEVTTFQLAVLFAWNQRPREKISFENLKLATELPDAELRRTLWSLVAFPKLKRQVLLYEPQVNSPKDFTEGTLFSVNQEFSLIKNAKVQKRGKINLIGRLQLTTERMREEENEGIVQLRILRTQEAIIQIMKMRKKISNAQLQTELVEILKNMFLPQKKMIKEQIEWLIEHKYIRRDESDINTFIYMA

Molecular target: HIS-tagged cullin5 (HIS-Cul5), residues 1-780 (UniProt Q93034)
Assay: co-purification of co-expressed proteins; HIS-Cul5/Rbx2 coexpressed in E. coli; Ni-Sepharose by the HIS tag of Cul5, then Superdex 200 gel filtration

How did the binding turn out when “Rbx2, residues 1-113 (from UniProt Q9UBF6-1 1-113)” was run?
The binding was “binds”.
